Measured values reported in patent publication US20130071397A1.
No constants are given. Whether binding was seen depends on the method and setting. Some binding calls cover weakened binding; strength is not graded here.

Columns and labels:
[1] = target: PDGFRβ E390A mutant (flag-tagged) (human) (UniProt P09619); experiment: DSS crosslinking of PDGF-stimulated MEFs, IP and anti-flag immunoblot
[2] = target: PDGFRβ E390A mutant (flag-tagged) (human) (UniProt P09619); experiment: DSS crosslinking of PDGF-treated MEFs, immunoprecipitation with anti-PDGFR, immunoblot with anti-flag; receptor homodimer formed in the presence of PDGF BB
[3] = target: PDGFRβ E390A mutant (flag-tagged) (human) (UniProt P09619); experiment: covalent crosslinking of PDGF-stimulated MEFs
[4] = target: PDGFRβ E390A mutant (flag-tagged) (human) (UniProt P09619); experiment: DSS crosslinking of PDGF-treated MEFs, Ip: PDGFR, ib: Flag; receptor homodimer formed in the presence of PDGF BB
[5] = target: wild type PDGFRβ with C-terminal flag-tag expressed in PDGFR-deficient MEFs (human) (UniProt P09619); experiment: DSS crosslinking of PDGF-stimulated MEFs, IP and anti-flag immunoblot
[6] = target: wild type PDGFRβ with C-terminal flag-tag expressed in PDGFR-deficient MEFs (human) (UniProt P09619); experiment: DSS crosslinking of PDGF-treated MEFs, immunoprecipitation with anti-PDGFR, immunoblot with anti-flag; receptor homodimer formed in the presence of PDGF BB
[7] = target: wild type PDGFRβ with C-terminal flag-tag expressed in PDGFR-deficient MEFs (human) (UniProt P09619); experiment: DSS crosslinking of PDGF-treated MEFs, Ip: PDGFR, ib: Flag; receptor homodimer formed in the presence of PDGF BB

| binding [1] | binding [2] | binding [3] | binding [4] | binding [5] | binding [6] | binding [7] | Substance |
| --- | --- | --- | --- | --- | --- | --- | --- |
| binds | binds | binds | binds |  |  |  | PDGFRβ E390A mutant (flag-tagged) (from UniProt P09619 33-1106) (receptor) |
|  |  |  |  | binds | binds | binds | wild type PDGFRβ with C-terminal flag-tag expressed in PDGFR-deficient MEFs (from UniProt P09619 33-1106) (receptor) |
